Some results were stated once for a whole list of compounds, not compound by compound. Oligonucleotides are written 5' to 3', each unit as a sugar letter and its base; * is a phosphorothioate linkage, no mark a phosphodiester; rarer units and linkages stand in square brackets, end groups in braces. Plain capitals give the bases only. {Chol} = cholesterol conjugate; m = 2'-O-methyl; r = 2'-OH (RNA)
System: tyrosinase protein
Assay: Western blot of tyrosinase protein expression in treated MNT-1 cells
Format: cell-based, human
Settings: 72 hours, without transfection vehicle
Protocol: MNT-1 cells were cultured in Minimum Essential Media (Welgene) containing 20% fetal bovine serum (Gibco), 100 μg/ml penicillin/streptomycin, 10% 200 mM HEPES (Welgene) and 10% Dulbecco's modified Eagle's medium (Welgene). One day prior to treatment, 6.5×10^4MNT-1 cells were seeded in 12-well plates.
(§1) After 72 hours of cp-asiTYR(4)-1 incubation, the level of tyrosinase protein expression was determined via western blot. Briefly, the treated MNT-1 cells were lysed with RIPA buffer (GE). Fifteen μg of the total protein extract were loaded onto a 12% SDS-PAGE gel and electrophoresed at 120 V. After electrophoresis, the proteins were transferred to PVDF membrane (Bio-rad) already activated by methanol (Merck) for 1 hour at 300 mA. The membrane was blocked for 1 hour at the room temperature with 5% skim milk (Seoul Milk) and then incubated overnight at 4° C. in 5% skim milk containing anti-tyrosinase antibody (Santa Cruz) and anti-β-actin antibody (Santa Cruz). The membrane was then washed with 1×TBST for 10 minutes three times and was incubated for 1 hour at the room temperature in 5% skim milk with HRP-conjugated secondary antibody. The membrane was washed with 1×TBST for 10 minutes and treated with 1×ECL for 1 minute. The tyrosinase and β-actin bands were then imaged using a Chemidoc instrument (Bio-rad).
as §1, with “The level” for “After 72 hours of cp-asiTYR(4)-1 incubation, the level”, “expression by MNT-1 cells after treatment with 1 μM and 3 μM cp-asiRNAs” for “expression”, “the transfected” for “the treated”
The level of tyrosinase protein expression by MNT-1 cells after treatment with 1 μM, 0.6 μM, 0.3 μM and 0.1 μM cp-asiRNAs was determined via western blot. Briefly, the transfected MNT-1 cells were lysed with RIPA buffer (GE). […]

[1] = 1 μM, 0.6 μM, 0.3 μM and 0.1 μM, FIG. 10

Substance	inhibition in the level of tyrosinase protein [1]	inhibition in the level of tyrosinase protein (1 μM and 3 μM, FIG. 8)
cp-asiTYR(4) 19AS-7: S: GCUGACAGGAGAUG*A*A*cholesterol (SEQ ID NO: 131); AS: UUCAUCUCCUGUC*A*G*C*mU*mU*mC (SEQ ID NO: 162) (sense rGrCrUrGrArCrArGrGrArGrArUrG*rA*rA*{Chol}; antisense rUrUrCrArUrCrUrCrCrUrGrUrC*rA*rG*rC*mU*mU*mC; siRNA)	greater than 70%	
cp-asiTYR(4) 19AS-5: S: GCUGACAGGAGAUG*A*A*cholesterol (SEQ ID NO: 131); AS: UUCAUCUCCUGUCAG*C*mU*mU*mC (SEQ ID NO: 160) (sense rGrCrUrGrArCrArGrGrArGrArUrG*rA*rA*{Chol}; antisense rUrUrCrArUrCrUrCrCrUrGrUrCrArG*rC*mU*mU*mC; siRNA)		greater than 70%
cp-asiTYR(4)-1: S: GCUGACAGGAGAUG*A*A*cholesterol (SEQ ID NO: 131); AS: UUCAUCUCCUGUCAGCU*U*C*U*G (SEQ ID NO: 132) (sense GCUGACAGGAGAUGAA; antisense UUCAUCUCCUGUCAGCUUCUG; siRNA; sense: linkages o13 s2 (s phosphorothioate, o phosphodiester), 3' *{Chol}, sugars by position and methylation of C not given here; antisense: linkages o16 s4 (s phosphorothioate, o phosphodiester), sugars by position and methylation of C not given here)	greater than 70%	greater than 70%

Reference: patent US10512600B2, “RNA complexes that inhibit melanin production” (OliX Pharmaceuticals, Inc., priority 2015, dated 2019)
